The supplement of paper PMC10849652
The other results are listed elsewhere or left out.

Protein sequences, listed by entry. Tags and fused reporters are not part of them. Lines headed by an entry give the natural chain unless they say otherwise; changes in a name come on top.
UniProt P07384: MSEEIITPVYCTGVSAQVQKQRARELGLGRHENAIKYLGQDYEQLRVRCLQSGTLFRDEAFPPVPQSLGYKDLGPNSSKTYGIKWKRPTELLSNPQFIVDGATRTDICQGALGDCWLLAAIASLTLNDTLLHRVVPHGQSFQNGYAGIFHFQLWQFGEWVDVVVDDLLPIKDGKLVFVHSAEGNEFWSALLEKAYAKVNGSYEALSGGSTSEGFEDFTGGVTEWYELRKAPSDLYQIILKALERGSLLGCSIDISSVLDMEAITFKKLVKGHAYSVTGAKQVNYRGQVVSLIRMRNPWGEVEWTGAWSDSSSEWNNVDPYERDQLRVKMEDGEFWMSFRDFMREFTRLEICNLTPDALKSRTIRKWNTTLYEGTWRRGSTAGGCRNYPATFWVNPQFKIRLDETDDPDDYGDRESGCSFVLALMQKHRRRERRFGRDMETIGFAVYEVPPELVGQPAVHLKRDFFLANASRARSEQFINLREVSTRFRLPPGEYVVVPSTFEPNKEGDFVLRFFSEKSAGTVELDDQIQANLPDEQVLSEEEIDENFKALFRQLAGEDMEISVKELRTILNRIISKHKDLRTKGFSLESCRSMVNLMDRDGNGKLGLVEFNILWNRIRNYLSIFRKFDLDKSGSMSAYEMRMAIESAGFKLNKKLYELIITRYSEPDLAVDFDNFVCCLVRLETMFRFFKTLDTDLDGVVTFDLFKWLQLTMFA
UniProt Q96L12: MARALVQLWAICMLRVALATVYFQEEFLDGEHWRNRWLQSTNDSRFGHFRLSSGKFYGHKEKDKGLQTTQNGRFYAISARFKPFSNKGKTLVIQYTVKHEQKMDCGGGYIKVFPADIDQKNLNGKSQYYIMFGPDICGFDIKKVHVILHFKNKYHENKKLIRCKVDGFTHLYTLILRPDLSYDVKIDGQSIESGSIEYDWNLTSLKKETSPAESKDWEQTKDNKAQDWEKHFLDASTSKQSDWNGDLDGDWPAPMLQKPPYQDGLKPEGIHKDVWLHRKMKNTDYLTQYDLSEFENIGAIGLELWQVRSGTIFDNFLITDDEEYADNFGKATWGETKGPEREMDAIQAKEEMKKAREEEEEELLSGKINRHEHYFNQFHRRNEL
UniProt A6NDU8: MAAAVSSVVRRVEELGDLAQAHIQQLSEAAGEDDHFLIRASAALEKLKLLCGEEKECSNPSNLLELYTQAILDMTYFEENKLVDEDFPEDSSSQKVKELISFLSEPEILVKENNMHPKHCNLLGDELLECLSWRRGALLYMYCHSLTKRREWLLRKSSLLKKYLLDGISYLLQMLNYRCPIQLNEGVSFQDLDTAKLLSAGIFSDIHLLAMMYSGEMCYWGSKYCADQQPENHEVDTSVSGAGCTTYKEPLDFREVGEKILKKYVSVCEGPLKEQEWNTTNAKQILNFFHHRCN
UniProt Q6UWU4: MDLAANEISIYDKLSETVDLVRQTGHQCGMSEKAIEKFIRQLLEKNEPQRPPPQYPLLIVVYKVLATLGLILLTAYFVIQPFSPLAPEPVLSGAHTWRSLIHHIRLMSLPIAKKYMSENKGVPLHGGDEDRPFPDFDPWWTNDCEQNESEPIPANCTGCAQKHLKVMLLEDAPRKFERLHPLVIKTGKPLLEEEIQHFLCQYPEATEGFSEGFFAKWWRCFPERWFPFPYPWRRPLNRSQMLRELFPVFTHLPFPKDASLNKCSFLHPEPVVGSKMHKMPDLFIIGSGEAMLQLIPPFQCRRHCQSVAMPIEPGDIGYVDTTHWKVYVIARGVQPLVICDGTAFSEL
UniProt Q96MD7: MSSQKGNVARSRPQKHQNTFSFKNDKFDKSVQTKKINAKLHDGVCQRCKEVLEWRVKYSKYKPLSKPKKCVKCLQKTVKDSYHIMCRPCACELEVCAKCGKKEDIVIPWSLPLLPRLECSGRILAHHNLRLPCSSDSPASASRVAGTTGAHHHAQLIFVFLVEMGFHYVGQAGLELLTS
UniProt Q9HB71, whole entry, looked up: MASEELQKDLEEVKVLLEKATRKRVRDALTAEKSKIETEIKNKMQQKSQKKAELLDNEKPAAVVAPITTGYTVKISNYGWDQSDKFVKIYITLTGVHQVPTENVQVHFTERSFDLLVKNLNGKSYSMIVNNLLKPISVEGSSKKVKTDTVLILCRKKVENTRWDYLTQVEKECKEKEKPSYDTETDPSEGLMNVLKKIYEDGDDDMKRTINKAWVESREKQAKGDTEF
UniProt Q13895: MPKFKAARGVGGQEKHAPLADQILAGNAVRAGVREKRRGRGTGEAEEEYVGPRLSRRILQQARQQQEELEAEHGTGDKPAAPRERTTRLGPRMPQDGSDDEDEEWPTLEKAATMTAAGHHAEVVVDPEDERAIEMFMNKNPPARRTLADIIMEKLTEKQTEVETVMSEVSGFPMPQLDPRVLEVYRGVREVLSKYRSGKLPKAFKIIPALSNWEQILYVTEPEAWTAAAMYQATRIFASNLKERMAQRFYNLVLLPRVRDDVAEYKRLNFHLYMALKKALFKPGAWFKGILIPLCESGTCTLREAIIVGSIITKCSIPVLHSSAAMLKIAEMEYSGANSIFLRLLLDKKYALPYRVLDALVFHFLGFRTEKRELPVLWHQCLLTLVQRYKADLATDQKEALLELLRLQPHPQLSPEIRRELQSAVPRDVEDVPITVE
UniProt Q07021: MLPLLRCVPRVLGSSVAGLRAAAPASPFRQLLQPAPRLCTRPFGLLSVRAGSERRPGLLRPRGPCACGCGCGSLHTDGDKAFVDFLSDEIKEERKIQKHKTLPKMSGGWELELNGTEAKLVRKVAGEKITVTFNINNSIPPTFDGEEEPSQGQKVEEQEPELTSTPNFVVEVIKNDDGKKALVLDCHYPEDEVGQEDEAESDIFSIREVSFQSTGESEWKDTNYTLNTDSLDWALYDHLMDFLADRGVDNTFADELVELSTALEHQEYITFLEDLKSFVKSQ
UniProt Q96LT7: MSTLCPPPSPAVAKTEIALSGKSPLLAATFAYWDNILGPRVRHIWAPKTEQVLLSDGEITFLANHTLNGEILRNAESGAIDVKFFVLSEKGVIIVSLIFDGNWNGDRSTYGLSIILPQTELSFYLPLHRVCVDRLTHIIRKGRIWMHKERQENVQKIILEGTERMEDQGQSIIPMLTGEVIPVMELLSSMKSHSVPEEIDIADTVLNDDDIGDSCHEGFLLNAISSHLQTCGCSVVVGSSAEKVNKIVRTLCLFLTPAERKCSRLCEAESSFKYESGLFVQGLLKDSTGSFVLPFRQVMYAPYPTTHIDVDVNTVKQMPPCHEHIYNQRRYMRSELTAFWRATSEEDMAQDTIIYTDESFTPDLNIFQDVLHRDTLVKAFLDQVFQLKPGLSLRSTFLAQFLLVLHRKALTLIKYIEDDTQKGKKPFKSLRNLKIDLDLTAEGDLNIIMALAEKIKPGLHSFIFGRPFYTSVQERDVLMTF
UniProt Q8NDD1: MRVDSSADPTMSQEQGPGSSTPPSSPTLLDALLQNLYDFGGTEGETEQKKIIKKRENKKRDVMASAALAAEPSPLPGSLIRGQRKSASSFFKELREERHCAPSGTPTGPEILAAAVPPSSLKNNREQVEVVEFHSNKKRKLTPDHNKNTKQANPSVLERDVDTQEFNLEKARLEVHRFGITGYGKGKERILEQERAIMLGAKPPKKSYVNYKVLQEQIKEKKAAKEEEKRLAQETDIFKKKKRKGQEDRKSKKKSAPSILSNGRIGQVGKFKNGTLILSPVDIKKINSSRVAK
UniProt Q13137: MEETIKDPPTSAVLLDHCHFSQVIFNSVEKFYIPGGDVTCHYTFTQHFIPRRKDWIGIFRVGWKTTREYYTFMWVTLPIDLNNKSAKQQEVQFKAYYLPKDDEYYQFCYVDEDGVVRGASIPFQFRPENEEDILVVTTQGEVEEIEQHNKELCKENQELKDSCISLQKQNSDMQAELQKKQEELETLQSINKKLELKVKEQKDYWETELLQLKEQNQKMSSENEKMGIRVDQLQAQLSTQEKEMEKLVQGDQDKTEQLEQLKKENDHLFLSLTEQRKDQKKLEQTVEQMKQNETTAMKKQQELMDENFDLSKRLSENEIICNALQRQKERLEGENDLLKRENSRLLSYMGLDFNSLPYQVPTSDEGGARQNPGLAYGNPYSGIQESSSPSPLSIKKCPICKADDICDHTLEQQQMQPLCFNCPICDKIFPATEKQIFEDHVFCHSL
UniProt Q6ZSJ8: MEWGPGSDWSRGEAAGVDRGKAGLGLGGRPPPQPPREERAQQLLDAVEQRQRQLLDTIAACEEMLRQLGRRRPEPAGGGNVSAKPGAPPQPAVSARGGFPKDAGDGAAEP
UniProt Q6P1S2: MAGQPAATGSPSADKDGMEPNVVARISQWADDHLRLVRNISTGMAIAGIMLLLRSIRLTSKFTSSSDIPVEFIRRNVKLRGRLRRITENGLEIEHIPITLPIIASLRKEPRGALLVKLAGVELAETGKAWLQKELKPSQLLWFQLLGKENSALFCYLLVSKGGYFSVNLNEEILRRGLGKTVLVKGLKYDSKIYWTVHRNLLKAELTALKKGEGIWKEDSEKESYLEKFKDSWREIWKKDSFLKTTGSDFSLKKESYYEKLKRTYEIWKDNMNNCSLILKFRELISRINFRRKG
UniProt P41223: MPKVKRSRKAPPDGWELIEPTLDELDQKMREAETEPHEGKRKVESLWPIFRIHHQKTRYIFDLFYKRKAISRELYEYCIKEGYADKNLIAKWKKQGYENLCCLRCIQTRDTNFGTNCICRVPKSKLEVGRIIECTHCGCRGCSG
UniProt Q9NX04: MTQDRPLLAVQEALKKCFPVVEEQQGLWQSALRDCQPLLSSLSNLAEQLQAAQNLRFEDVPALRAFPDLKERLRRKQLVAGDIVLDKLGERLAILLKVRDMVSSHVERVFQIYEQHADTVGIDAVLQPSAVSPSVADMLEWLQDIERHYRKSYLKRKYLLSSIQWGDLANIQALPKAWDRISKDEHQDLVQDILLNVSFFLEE
UniProt Q9BVC5: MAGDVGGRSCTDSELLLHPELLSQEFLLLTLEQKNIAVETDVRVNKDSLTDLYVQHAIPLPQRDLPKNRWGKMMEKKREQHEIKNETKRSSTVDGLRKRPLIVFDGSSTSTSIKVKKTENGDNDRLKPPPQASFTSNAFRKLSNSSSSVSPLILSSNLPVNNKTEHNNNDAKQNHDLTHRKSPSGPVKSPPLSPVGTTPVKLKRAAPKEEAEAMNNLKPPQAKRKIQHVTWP
UniProt Q8N6N3: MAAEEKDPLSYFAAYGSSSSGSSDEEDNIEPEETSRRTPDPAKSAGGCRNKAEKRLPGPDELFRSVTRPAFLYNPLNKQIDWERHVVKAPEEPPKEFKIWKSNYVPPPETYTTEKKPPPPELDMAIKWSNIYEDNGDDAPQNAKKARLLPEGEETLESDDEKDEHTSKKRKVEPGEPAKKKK
UniProt Q8WUR7: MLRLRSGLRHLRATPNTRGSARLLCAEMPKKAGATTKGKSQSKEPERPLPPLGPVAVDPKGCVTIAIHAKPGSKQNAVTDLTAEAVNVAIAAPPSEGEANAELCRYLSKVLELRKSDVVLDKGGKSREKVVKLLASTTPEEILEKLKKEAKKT
UniProt O43709: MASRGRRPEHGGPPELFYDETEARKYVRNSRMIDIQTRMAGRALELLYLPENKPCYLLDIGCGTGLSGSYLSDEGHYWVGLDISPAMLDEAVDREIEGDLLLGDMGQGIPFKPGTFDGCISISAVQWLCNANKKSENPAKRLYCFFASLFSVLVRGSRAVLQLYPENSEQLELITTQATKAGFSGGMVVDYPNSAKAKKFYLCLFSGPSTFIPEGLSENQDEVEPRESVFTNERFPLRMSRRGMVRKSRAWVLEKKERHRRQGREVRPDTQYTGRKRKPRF
UniProt Q6P1X6: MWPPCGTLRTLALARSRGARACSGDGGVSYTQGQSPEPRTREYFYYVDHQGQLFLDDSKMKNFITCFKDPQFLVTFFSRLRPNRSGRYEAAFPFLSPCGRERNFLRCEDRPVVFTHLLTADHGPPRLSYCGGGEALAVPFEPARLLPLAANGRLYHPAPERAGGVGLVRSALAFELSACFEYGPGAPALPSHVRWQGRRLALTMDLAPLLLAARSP
UniProt Q6P5X5: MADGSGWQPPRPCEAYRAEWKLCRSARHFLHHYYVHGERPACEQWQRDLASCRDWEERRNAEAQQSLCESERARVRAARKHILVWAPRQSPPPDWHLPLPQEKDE
UniProt P40121: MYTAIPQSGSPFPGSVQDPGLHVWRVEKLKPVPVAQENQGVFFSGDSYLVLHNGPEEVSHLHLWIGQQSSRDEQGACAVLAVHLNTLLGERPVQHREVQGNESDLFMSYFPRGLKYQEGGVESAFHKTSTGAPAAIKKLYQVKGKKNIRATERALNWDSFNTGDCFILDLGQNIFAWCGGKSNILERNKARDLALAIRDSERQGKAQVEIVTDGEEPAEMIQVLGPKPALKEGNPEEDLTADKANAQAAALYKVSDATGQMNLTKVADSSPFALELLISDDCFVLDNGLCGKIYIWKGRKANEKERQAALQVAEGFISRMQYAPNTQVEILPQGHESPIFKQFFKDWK

How the values were obtained:
Experiment in all cases: log2 fold change, soluble protein after heating vs DMSO (PISA); higher = thermal stabilisation; K562 cells, 10 uM, 30 min; active = over 0.2 and 3.5 SD of the protein, either way, in both replicates (recomputed)
[1] = compound: COC1=CC=C(C=C1)CN2C=CC3=C2C=C(C=C3)C(=O)NO
Method in brief: (§1)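 K562 cells (2×10^6 cells/mL) were treated with 10 μM compound for 30 min, and aliquots were heated for 3 min over 48°C-58°C. Pooled aliquots were extracted in PBS with 0.5% NP-40 at 4°C, and the supernatant after 21,000xg for 90 min was measured by TMTpro 16plex LC-MS/MS with channel sums equalised. Reported thermal stability, relative to control samples and from duplicates, is a log2 fold change.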

[2] = compound: CON(C)C(=O)N1N=C(c2cc(F)ccc2F)S[C@@]1(CCCN)c1ccccc1 [filanesib]
Method in brief: as §1

[3] = compound: CO[C@H]1C[C@@H]2CC[C@@H](C)[C@@](O)(O2)C(=O)C(=O)N2CCCC[C@H]2C(=O)O[C@H]([C@H](C)C[C@@H]2CC[C@H](n3cnnn3)[C@H](OC)C2)CC(=O)[C@H](C)/C=C(\C)[C@@H](O)[C@@H](OC)C(=O)[C@H](C)C[C@H](C)/C=C/C=C/C=C/1C [zotarolimus]
Method in brief: as §1

[4] = compound: COc1cc(C(=O)O)ccc1NC(=O)[C@@H]1N[C@@H](CC(C)(C)C)[C@](C#N)(c2ccc(Cl)cc2F)[C@H]1c1cccc(Cl)c1F [idasanutlin]
Method in brief: as §1

[5] = compound: COc1cc(Nc2ncc3c(n2)-c2ccc(Cl)cc2C(c2c(F)cccc2OC)=NC3)ccc1C(=O)O [alisertib]
Method in brief: as §1

[6] = compound: COc1cc2nc(-c3cc(F)ccc3O)nc(N[C@@H]3CNC[C@H]3C(C)(C)O)c2cc1OC
Method in brief: as §1

[7] = compound: COc1cc2ncnc(Nc3ccc(F)c(Cl)c3)c2cc1OCCCN1CCOCC1 [gefitinib]
Method in brief: as §1

[8] = compound: COc1cccc2cc(-c3nc([C@H]4CC[C@H](C(=O)O)CC4)n4ncnc(N)c34)[nH]c12
Method in brief: as §1

[9] = compound: CS(=O)(=O)CCNCc1ccc(-c2ccc3ncnc(Nc4ccc(OCc5cccc(F)c5)c(Cl)c4)c3c2)o1 [lapatinib]
Method in brief: as §1

[10] = compound: CS(=O)(=O)N1CCN(Cc2cc3nc(-c4cccc5[nH]ncc45)nc(N4CCOCC4)c3s2)CC1 [pictilisib]
Method in brief: as §1

Measured: log2 fold change

CAPN1 (UniProt P07384)
inactive: [1] 0.002 | [2] -0.029 | [3] 0.02 | [4] -0.016 | [5] -0.09 | [6] -0.015 | [7] 0 | [8] 0.038 | [9] 0.015 | [10] -0.011

CALR3 (UniProt Q96L12)
inactive: [1] 0.02

C5orf51 (UniProt A6NDU8)
inactive: [1] -0.042 | [2] -0.051 | [3] 0.092 | [4] -0.13 | [5] -0.072 | [6] 0.053 | [7] 0.005 | [8] -0.02 | [9] -0.036 | [10] 0.014

C6orf89 isoform 2 (UniProt Q6UWU4)
inactive: [1] -0.105 | [2] -0.099 | [3] 0.02 | [4] 0.013 | [5] -0.043 | [6] -0.073 | [7] -0.014 | [8] 0.075 | [9] -0.007 | [10] 0.041

C9orf85 isoform 1 (UniProt Q96MD7)
inactive: [1] 0.127 | [2] 0.067 | [3] 0.052 | [4] 0.199 | [5] 0.231 | [6] -0.114 | [7] 0.235 | [8] -0.014 | [9] 0.143

CACYBP (UniProt Q9HB71)
inactive: [1] 0 | [2] -0.044 | [3] 0.008 | [4] -0.044 | [5] -0.049 | [6] 0.041 | [7] -0.004 | [8] 0.021 | [9] -0.073 | [10] 0.002

C1orf198 (UniProt Q9H425)
inactive: [1] -0.059 | [2] -0.119 | [3] -0.054 | [4] 0.052 | [5] -0.026 | [6] -0.064 | [7] -0.028 | [8] -0.014 | [9] 0.095 | [10] -0.027

BYSL (UniProt Q13895)
inactive: [1] -0.033 | [2] 0.078 | [3] 0.065 | [4] -0.057 | [5] 0.022 | [6] 0.207 | [7] -0.03 | [8] -0.057 | [9] 0.032 | [10] -0.022

C1QBP (UniProt Q07021)
inactive: [1] -0.015 | [2] 0.005 | [3] 0.013 | [4] -0.038 | [5] -0.055 | [6] 0.043 | [7] 0.013 | [8] 0.02 | [9] -0.014 | [10] 0.028

C9orf72 (UniProt Q96LT7)
inactive: [1] -0.06 | [2] -0.054 | [3] -0.115 | [4] -0.026 | [5] 0.062 | [6] -0.013 | [7] -0.034 | [8] -0.062 | [9] 0.062 | [10] -0.015

C1orf131 isoform 5 (UniProt Q8NDD1)
inactive: [1] -0.132 | [2] 0.247 | [3] 0.012 | [4] 0.182 | [5] -0.045 | [6] -0.039 | [7] 0.022 | [8] -0.064 | [9] 0.107 | [10] -0.07

BTF3 (UniProt P20290)
inactive: [1] -0.005 | [2] -0.003 | [3] -0.026 | [4] 0.008 | [5] -0.022 | [6] -0.087 | [7] -0.016 | [8] -0.007 | [9] 0.029 | [10] -0.079

CALCOCO2 isoform 4 (UniProt Q13137)
inactive: [1] -0.041 | [2] -0.166 | [3] -0.044 | [4] 0.014 | [5] 0 | [6] 0.018 | [7] -0.07 | [8] -0.08 | [9] 0 | [10] 0.031

C19orf53 (UniProt Q9UNZ5)
inactive: [1] -0.225 | [2] 0.375 | [3] 0.042 | [4] 0.209 | [5] -0.086 | [6] -0.067 | [7] -0.045 | [8] -0.167 | [9] 0.184 | [10] -0.073

C1orf122 (UniProt Q6ZSJ8)
inactive: [1] 0.074 | [2] -0.019 | [3] 0.12 | [4] -0.046 | [5] -0.01 | [6] 0.072 | [7] 0.017 | [8] 0.027 | [9] -0.093 | [10] -0.156

C3orf33 (UniProt Q6P1S2)
inactive: [1] -0.008 | [2] 0.027 | [3] -0.003 | [4] -0.046 | [5] -0.029 | [6] 0.084 | [7] 0.143 | [8] 0 | [9] 0.052 | [10] 0.046

BUD31 (UniProt P41223)
inactive: [1] 0.044 | [2] -0.057 | [3] 0.035 | [4] -0.017 | [5] -0.052 | [6] 0.089 | [7] -0.064 | [8] -0.077 | [9] 0.003 | [10] 0.069

CAP1 (UniProt Q01518)
inactive: [1] 0.061 | [2] -0.094 | [3] 0 | [4] 0.001 | [5] 0.003 | [6] -0.003 | [7] -0.014 | [8] 0.02 | [9] 0.007 | [10] 0.041

C1orf109 (UniProt Q9NX04)
inactive: [1] -0.074 | [2] -0.09 | [3] -0.094 | [4] -0.034 | [5] -0.129 | [6] 0.048 | [7] 0.113 | [8] 0.008 | [9] -0.06 | [10] -0.074

C1GALT1 (UniProt Q9NS00)
inactive: [1] 0.008 | [2] 0.02 | [3] 0.025 | [4] -0.038 | [5] -0.065 | [6] 0.093 | [7] -0.064 | [8] 0.053 | [9] 0.04 | [10] 0.044

C2orf49 (UniProt Q9BVC5)
inactive: [1] -0.012 | [2] 0.36 | [3] 0.254 | [4] 0.085 | [5] -0.089 | [6] 0.169 | [7] -0.029 | [8] -0.13 | [9] -0.044 | [10] -0.067

CAPN1 (UniProt E9PLX0)
inactive: [1] 0.124 | [2] 0.259

C1orf52 (UniProt Q8N6N3)
inactive: [1] 0.024 | [2] -0.052 | [3] -0.059 | [4] 0.022 | [5] -0.014 | [6] -0.053 | [7] 0.006 | [8] 0.03 | [9] 0.012 | [10] -0.033

Copied from the entries so far (two entries):
C1GALT1 (UniProt Q9NS00)
inactive: [1] 0.008 | [2] 0.02 | [3] 0.025 | [4] -0.038 | [5] -0.065 | [6] 0.093 | [7] -0.064 | [8] 0.053 | [9] 0.04 | [10] 0.044

C2orf49 (UniProt Q9BVC5)
inactive: [1] -0.012 | [2] 0.36 | [3] 0.254 | [4] 0.085 | [5] -0.089 | [6] 0.169 | [7] -0.029 | [8] -0.13 | [9] -0.044 | [10] -0.067

(listing goes on)

C15orf40 (UniProt Q8WUR7)
inactive: [1] -0.056 | [2] 0.014 | [3] -0.022 | [4] 0.01 | [5] -0.009 | [6] 0.058 | [7] -0.029 | [8] 0.077 | [9] -0.051 | [10] -0.124

BTF3L4 (UniProt Q96K17)
inactive: [1] 0.077 | [2] -0.034 | [3] -0.072 | [4] -0.051 | [5] -0.004 | [6] -0.045 | [7] -0.026 | [8] 0.04 | [9] 0.036 | [10] -0.001

BUD23 isoform 3 (UniProt O43709)
inactive: [1] -0.08 | [2] 0.092 | [3] -0.021 | [4] 0.001 | [5] -0.006 | [6] 0.011 | [7] -0.038 | [8] -0.061 | [9] 0.034 | [10] 0.011

C8orf82 (UniProt Q6P1X6)
inactive: [1] 0.019 | [2] -0.04 | [3] 0.012 | [4] 0.015 | [5] -0.028 | [6] 0.017 | [7] 0.018 | [8] 0.005 | [9] 0.001 | [10] 0.003

C22orf39 (UniProt Q6P5X5)
inactive: [1] 0.02 | [2] -0.043 | [3] -0.014 | [4] 0.119 | [5] -0.025 | [6] -0.344 | [7] 0.058 | [8] -0.006 | [9] 0.077

C3orf38 (UniProt Q5JPI3)
inactive: [1] 0.102 | [2] 0.215 | [3] 0.006 | [4] 0.172 | [5] -0.04 | [6] 0.094 | [7] -0.046 | [8] -0.093 | [9] -0.074

C9orf64 (UniProt Q5T6V5)
inactive: [1] 0.07 | [2] -0.091 | [3] 0.038 | [4] -0.062 | [5] 0.078 | [6] -0.079 | [7] -0.062 | [8] -0.022 | [9] 0.043 | [10] -0.055

CAPG (UniProt P40121)
inactive: [1] 0.101 | [2] -0.045 | [3] 0.018 | [4] -0.095 | [5] 0.053 | [6] 0.008 | [7] 0.013 | [8] -0.017 | [9] 0.025 | [10] 0.036
